Reference: publication PMC8131622
Results are given in words; binding and its absence hold for the method and conditions named. Binding seen in cells or lysates may run through a third protein. Some results given as binding are weak or reduced against the parent protein; the word gives no strength.

Amino acid sequences for entries named in this document (tags omitted).
UniProt O14543: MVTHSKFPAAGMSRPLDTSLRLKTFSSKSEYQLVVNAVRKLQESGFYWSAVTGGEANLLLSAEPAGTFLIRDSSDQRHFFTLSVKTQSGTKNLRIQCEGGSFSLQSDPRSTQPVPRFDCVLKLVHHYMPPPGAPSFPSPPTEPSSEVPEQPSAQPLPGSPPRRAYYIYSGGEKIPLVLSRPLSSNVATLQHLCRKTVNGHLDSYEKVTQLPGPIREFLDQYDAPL

Biological target: T1, APN receptor 1 (AdipoR1) (human (endogenous in HUVECs)) (UniProt Q96A54)
T1 sequence: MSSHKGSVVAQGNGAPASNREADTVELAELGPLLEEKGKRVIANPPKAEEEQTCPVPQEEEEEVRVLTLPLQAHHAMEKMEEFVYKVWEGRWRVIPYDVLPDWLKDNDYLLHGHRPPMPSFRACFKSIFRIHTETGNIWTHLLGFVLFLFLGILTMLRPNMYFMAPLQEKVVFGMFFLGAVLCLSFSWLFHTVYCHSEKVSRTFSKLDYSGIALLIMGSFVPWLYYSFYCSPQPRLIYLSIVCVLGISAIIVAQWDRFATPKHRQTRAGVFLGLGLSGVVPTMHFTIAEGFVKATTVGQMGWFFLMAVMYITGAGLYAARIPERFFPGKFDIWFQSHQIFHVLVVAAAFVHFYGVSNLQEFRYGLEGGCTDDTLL
Experiment: co-IP; HUVEC lysate (1 mg/sample) precipitated with 2 ug anti-AdipoR1 antibody and protein A + G agarose beads, non-immune rabbit IgG as negative control, western blot of the eluate; cells treated with NIC, HG/HL, NIC + HG/HL, MG132, or siRNA-SOCS3

binding: binds
Substance: suppressor of cytokine signaling 3 (SOCS3) (from UniProt O14543 1-225)
